Test results published in patent publication US20170101521A1, “THERMAL BASE GENERATOR, THERMOSETTING RESIN COMPOSITION, CURED FILM, CURED FILM MANUFACTURING METHOD, AND SEMICONDUCTOR DEVICE” (FUJIFILM Corporation, priority 2014, published 2017).

Test: Base generation temperature by differential scanning calorimetry
Assay type: physicochemical
Conditions: DSC, heated to 250° C. at 5° C./min in pressure-resistant capsule; peak temperature of lowest exothermic peak
Description: The base generation temperature may be measured, for example, by heating a compound to 250° C. at a rate of 5° C./minute in a pressure-resistant capsule, reading a peak temperature of an exothermic peak having the lowest temperature, and taking the peak temperature as a base generation temperature, using differential scanning calorimetry.
Using differential scanning calorimetry (Q2000, manufactured by TA), (A) a thermal base generator was heated to 250° C. at 5° C./min in a pressure-resistant capsule. The peak temperature of an exothermic peak having the lowest temperature was read to measure such a peak temperature as a base generation temperature.

C1CNC2=[N+](C1)CCC2.O=C([O-])C(=O)O [A-35]
Base generation temperature: 80 °C
